Positions of bridges follow the written chain, without caps; N, C: chain ends. Residues, ends and D or L forms follow the SMILES beside them. *: point of attachment. X1 = O=C(O)c1ccc(-c2c3nc(c(-c4ccc(C(=O)O)cc4)c4ccc([nH]4)c(-c4ccc(C(=O)*)cc4)c4nc(c(-c5ccc(C(=O)O)cc5)c5ccc2[nH]5)C=C4)C=C3)cc1; X2 = O=C(O)C/C(=C/C(=O)*)C(=O)O

This series has as its system EJ xenograft tumor. Briefly: In situ self-assembly in tumor (NBD labeled, frozen sections). The class given is in vivo. As to conditions: EJ xenograft mice, 8 mg/kg i.v.
With “FeTCPP-LKLKLKGACNWLPLYPCPV (disulfide) [Gi-F]”, the “in situ self-assembly in tumor, NBD fluorescence” value (shortened to “in situ self-assembly in tumor”) was “moderate green fluorescence”.

“FeTCPP-LKLKLK(SA)GACNWLPLYPCPV (disulfide) [Gi-F-SA, control conjugate decorated with non-sensitive succinic anhydride (SA) moieties]”: the “in situ self-assembly in tumor” value is on record as “not in Gi-F-SA groups”.

As for `CC(C)C[C@H](NC(=O)c1ccc(-c2c3nc(c(-c4ccc(C(=O)O)cc4)c4ccc([nH]4)c(-c4ccc(C(=O)O)cc4)c4nc(c(-c5ccc(C(=O)O)cc5)c5ccc2[nH]5)C=C4)C=C3)cc1)C(=O)N[C@@H](CCCCNC(=O)/C=C(/CC(=O)O)C(=O)O)C(=O)N[C@@H](CC(C)C)C(=O)N[C@@H](CCCCN)C(=O)N[C@@H](CC(C)C)C(=O)N[C@@H](CCCCNC(=O)/C=C(/CC(=O)O)C(=O)O)C(=O)NCC(=O)N[C@@H](C)C(=O)N[C@H]1CSSC[C@@H](C(=O)N2CCC[C@H]2C(=O)N[C@H](C(=O)O)C(C)C)NC(=O)[C@@H]2CCCN2C(=O)[C@H](Cc2ccc(O)cc2)NC(=O)[C@H](CC(C)C)NC(=O)[C@@H]2CCCN2C(=O)[C@H](CC(C)C)NC(=O)[C@H](Cc2c[nH]c3ccccc23)NC(=O)[C@H](CC(N)=O)NC1=O` [Gi-F-CAA] (X1-LK(X2)LKLK(X2)GACNWLPLYPCPV-OH; disulfide 9-17; C-terminus assumed), the “in situ self-assembly in tumor” value is listed as “obvious green fluorescence”.

These data come from publication PMC10784468 (Nature Communications, 2024).
